Data as given in patent US20250215016A1, “ISOXAZOLE-HETEROCYCLIC DERIVATIVE, PHARMACEUTICAL COMPOSITION AND USE” (SHANGHAI SIMR BIOTECHNOLOGY CO., LTD, priority 2022, published 2025).
For at least one compound, name, drawing or mass did not settle the structure.

Experiment: Stability in simulated gastric fluid (SGF)
Assay type: physicochemical
Settings: 37° C., 1000 rpm
Experimental: Simulated gastric fluid (SGF), Manufacturer: Dongguan Chuangfeng Automation Technology Co., Ltd.; Product model: CF-006.
Oscillating constant temperature metal bath, Model: Thermo; Manufacturer: Digital Skaking Drybath.
Temperature: 37° C.; rotating speed: 1000 rpm; sampling time: 0, 4 hours.
Chromatographic column: Welch Xtimate C18 3.0×100 mm, 5 μm. Mobile phase: A: 0.04% trifluoroacetic acid (TFA)/H2O (v/v), B: acetonitrile (ACN). Gradient elution was performed according to the following table, flow rate: 1.0 mL/min; injection volume: 5 μL; column temperature: 35° C.; wavelength: 254 nm.
• (a) preparation of 0.04% TFA/H2O: 400 μL of TFA was measured, placed into 1 L of H2O, and homogenously mixed; • (b) Sample stock solution: about 3 mg of test sample was weighed, and prepared into a stock solution of 10 mmol/L using DMSO; • (c) 50 μL of the sample stock solution was taken, placed into a 5 mL volumetric flask, made up to the scale with the addition of SGF, and homogenously mixed. […]

Row | Compound | Residual content in simulated gastric juice after 4 hours (compared with 0 hour content)
1 | Cc1onc(-c2ccc(F)cc2)c1COc1cnc(-c2nnc3n2CCCOC3)cn1 [Compound 24, 3-(5-((3-(4-fluorophenyl)-5-methylisoxazol-4-yl)methoxy)pyrazin-2-yl)-6,7-dihydro-5H,9H-[1,2,4]triazolo[3,4-c][1,4]oxazepane] | 89% (4 hours)
2 | Cc1onc(-c2ccc(F)cc2)c1COc1cnc(-c2nnc3n2CCN(C2CCOC2)C3)cn1 (centres unmarked) [Compound 5] | 43% (4 hours)
